Laboratory results taken from PubChem BioAssay (EPA / NIEHS).
Values joined by “and” are separate entries in the source; they are usually repeats but may differ in a detail not shown here. Equal values may be shown once. Inconclusive results, whose numbers are uncertain, are shown with a selection of clear calls. Potencies beside an inconclusive call are fits to weak or partial responses and may not hold up. Some compounds were tested as several samples or in several runs, with calls that do not always agree. Active and inactive are the calls of the source. How the source made its calls: active means hit-call score of the fitted dose curve at least 0.9, where 1 is the maximum; inconclusive means response in the unintended direction; inactive means score below 0.9.

Amino acid sequences for entries named in this document (tags omitted).
UniProt P04637, whole entry, looked up: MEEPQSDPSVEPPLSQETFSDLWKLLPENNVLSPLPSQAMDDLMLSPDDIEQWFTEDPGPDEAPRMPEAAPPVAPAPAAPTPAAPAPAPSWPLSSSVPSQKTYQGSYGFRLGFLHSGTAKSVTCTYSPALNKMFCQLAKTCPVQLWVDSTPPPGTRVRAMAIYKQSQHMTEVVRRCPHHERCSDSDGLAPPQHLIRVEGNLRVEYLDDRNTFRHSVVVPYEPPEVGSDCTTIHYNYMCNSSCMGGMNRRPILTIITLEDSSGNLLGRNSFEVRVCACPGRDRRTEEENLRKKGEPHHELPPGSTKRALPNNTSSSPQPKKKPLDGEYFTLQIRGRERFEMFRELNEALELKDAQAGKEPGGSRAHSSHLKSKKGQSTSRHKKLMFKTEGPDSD

Tested on: not listed separately
Experiment: TOX21_p53_BLA_p4_viability: Viability Assessment in the Tox21 HCT-116 p53 Agonism Beta-lactamase Assay, Phase 4 (AID 2283597);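 further: hits lower the luminescence signal meaning cytotoxicity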
Method in brief: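 Viability is taken as cellular ATP: after 16 h compound exposure of HCT116 cells and a 2 h room-temperature CCF4-AM substrate step, CellTiter-Glo reagent is added and luminescence is measured 30 min later.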

| Structure (SMILES) | AC50 | outcome |
| --- | --- | --- |
| c1ccc(Cc2ccccc2)cc1 | inconclusive: 46.1 µM | – |
| CCO[Si](CCCNC(N)=O)(OCC)OCC | inconclusive: 46.1 µM | – |
| CCCCOCCOCCOCCO | inconclusive: 26.4 µM | inactive |
| O=C(O)Cn1c(=O)n(Cc2ccc(Br)cc2F)c(=O)c2ccc(Cl)cc21 | – | inactive |
| O=C(O)c1cccc(Oc2ccccc2)c1 | – | inactive |
| CC(C)c1ccc2c(C(C)C)cc(C(C)C)c(S(=O)(=O)O)c2c1 | active: 89.7 µM | – |

Target: Cellular tumor antigen p53 (Homo sapiens) (UniProt P04637)
Experiment: TOX21_p53_BLA_p5_ratio: Tox21 HCT-116 p53 Agonism Beta-lactamase Assay, Ratio, Phase 5 (AID 2283599)
Method in brief: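 HCT-116 p53-bla cells (4000/well) plated 5 h, dosed with compound (217-fold DMSO dilution) for 16 h at 37 C; CCF4-AM substrate 2 h at room temperature. Activity is the 460/530 nm emission ratio (405 nm excitation), fitted in gain-of-signal direction versus DMSO.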

| Structure (SMILES) | outcome | AC50 |
| --- | --- | --- |
| CC(C)=CCCC(C)=CC#N | inactive | – |
| Cc1ccc(C(C)C)cc1 | – | inconclusive: 46.1 µM |
| CCC(Cc1c(I)cc(I)c(N)c1I)C(=O)O (stereo unspecified) | – | inconclusive: 10.3 µM |
| CC(C)(C)C(=O)c1ccccc1 | inactive | – |
| c1ccc2occc2c1 | inactive | – |
| CC(C)c1ccc(O)c(C(C)C)c1 | inactive | – |
| CC(C)(C)c1ccc(OC(=O)c2ccccc2O)cc1 | – | inconclusive: 46.1 µM |
| CCCCC(CC)COC(=O)/C=C/c1ccc(OC)cc1 (stereo unspecified) | – | inconclusive: 73.6 µM |
| CC(C)CCCCCCc1ccc(O)cc1 | – | active: 39.9 µM |
| CCCCCCCCn1sc(Cl)c(Cl)c1=O | inactive | – |
| CCCCc1ccc2c(n1)[C@@H](c1ccc(OC)cc1C[C@H](C)C(=O)O)[C@H](C(=O)O)[C@H]2c1ccc2c(c1)OCO2 | inactive | – |
| c1ccc(Cc2ccccc2)cc1 | – | inconclusive: 46.1 µM |

6 compounds already listed, ordered by molecular weight, largest number first:

| Structure (SMILES) | outcome | AC50 |
| --- | --- | --- |
| CCC(Cc1c(I)cc(I)c(N)c1I)C(=O)O (stereo unspecified) | – | inconclusive: 10.3 µM |
| CCCCCCCCn1sc(Cl)c(Cl)c1=O | inactive | – |
| CC(C)CCCCCCc1ccc(O)cc1 | – | active: 39.9 µM |
| CC(C)(C)C(=O)c1ccccc1 | inactive | – |
| Cc1ccc(C(C)C)cc1 | – | inconclusive: 46.1 µM |
| c1ccc2occc2c1 | inactive | – |

Tested on: not listed separately
Experiment: TOX21_p53_BLA_p5_viability: Viability Assessment in the Tox21 HCT-116 p53 Agonism Beta-lactamase Assay, Phase 5 (AID 2283600)
Method in brief: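 Viability is taken from cellular ATP content, measured by luciferase luminescence in the same wells after the beta-lactamase ratio read. Cells are seeded at 4000 per well and exposed to DMSO-dissolved compounds, diluted 217-fold, for 16 h.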

| Structure (SMILES) | AC50 | outcome |
| --- | --- | --- |
| CC(C)=CCCC(C)=CC#N | inconclusive: 47.5 µM | – |
| Cc1ccc([N+](=O)[O-])c(C)c1 | inconclusive: 46.1 µM | – |
| CC[C@H](C)[C@@H](C(=O)O)n1sc2ccccc2c1=O | inconclusive: 46.1 µM | – |
| CN(C)CCOC(c1ccccc1)c1ccccc1 | inconclusive: 3.78 µM and inconclusive: 17 µM and inconclusive: 2.01 µM | – |
| CCC(Cc1c(I)cc(I)c(N)c1I)C(=O)O (stereo unspecified) | – | inactive |
| CC(C)(C)C(=O)c1ccccc1 | – | inactive |
| CC(C)(C)c1ccc(OC(=O)c2ccccc2O)cc1 | inconclusive: 46.1 µM | – |
| CCCCC(CC)COC(=O)/C=C/c1ccc(OC)cc1 (stereo unspecified) | – | inactive |
| CCCCc1ccc2c(n1)[C@@H](c1ccc(OC)cc1C[C@H](C)C(=O)O)[C@H](C(=O)O)[C@H]2c1ccc2c(c1)OCO2 | inconclusive: 46.1 µM | – |
| NCC1(Cc2noc(=O)[nH]2)CCCCC1 | inconclusive: 46.1 µM | – |
| CCO[Si](CCCNC(N)=O)(OCC)OCC | inconclusive: 46.1 µM | – |
| CCCCC/C=C\CCC=O | inconclusive: 46.1 µM | – |
| CCCCOCCOCCOCCO | inconclusive: 26.4 µM and inconclusive: 36.7 nM | – |
| O=C(O)c1cccc(Oc2ccccc2)c1 | inconclusive: 46.1 µM | – |
| CC(C)c1ccc2c(C(C)C)cc(C(C)C)c(S(=O)(=O)O)c2c1 | – | inactive |
| CCCCCCOC(=O)c1ccccc1 | – | inactive |
